Test results reported in patent US11654136B2, “Phosphoinositide 3-kinase inhibitor with a zinc binding moiety” (Curis, Inc., priority 2011, dated 2023).
For at least one compound, name, drawing or mass did not settle the structure.

Tests used:
[1] = tested on: Daudi human Burkitt's lymphoma xenograft; assay: Comparison with CAL-101 in the Daudi xenograft tumor model; format: in vivo, SCID beige mice; details: 30 mg/kg BID (Mon-Fri); 15 days
Method: Female SCID beige mice (CD-1 Beige SCID) at 6-8 weeks of age were housed in ventilated micro-isolator cages in a controlled climate, fed with sterile high-fat diet (Problab-RMH 2000 ad libitum and provided with sterilized water. All housing and supplies for SCID beige mice are disposable, and purchased irradiated from Innovive prior to use. Mice were inspected daily including weekends/holidays by trained animal facility personnel and investigators. All animal procedures were performed under sterile conditions in a biosafety cabinet (for injections) or laminar flow hood (for animal husbandry and non-invasive procedures).
Daudi human Burkitt's lymphoma cells were originally obtained from a human Burkitt's lymphoma patient. […] The implanted mice were monitored for general health and tumor development daily.
Tumors were detectable about two weeks following implantation. Tumor size was measured with a caliper. […]
During each animal study, tumors were measured with calipers, tumor size determined using the above mentioned formula, and tumor size changes in percentage calculated. Mouse body weights were measured with a scale twice per week. […] T/C values were calculated using the following formula: % T/C=100×ΔT/ΔC if ΔT>0. […]
Tumor sizes and body weights were measured again on the last day of the study.

[2] = tested on: PI3K; details: Hayakawa et al. 2006; cited from earlier work
[3] = tested on: tumor; details: Hayakawa et al. 2006; cited from earlier work

| Structure (SMILES) | Tumor growth / study termination [1] | IC50 PI3K [2] | in vivo anti-tumor activity [3] |
| --- | --- | --- | --- |
| CC[C@H](Nc1ncnc2[nH]cnc12)c1nc2cccc(F)c2c(=O)n1-c1ccccc1 [CAL-101, reference compound] | required earlier termination due to tumor size exceeding 10% of body weight | – | – |
| COC[C@H]1OC(=O)c2coc3c2[C@@]1(C)C1=C(C3=O)[C@@H]2CCC(=O)[C@@]2(C)C[C@H]1OC(C)=O [Wortmannin] | – | low nanomolar | low in vivo anti-tumor activity |
